# From PubChem BioAssay AID504648 (National Center for Advancing Translational Sciences (NCATS), 2011)
# About 610 (0.16%) of roughly 390,000 compounds were called active. Inconclusive results, whose numbers are uncertain, are shown with a selection of clear calls. Calls follow the shape of the dose curve; as a rule, active = well fitted inhibition curve with a large enough effect; inconclusive = small, poorly fitted or top-dose-only effect, or effect the other way, or another doubt; inactive = no such curve, though single readings can be large or run the other way. Potencies beside an inconclusive call are fits to weak or partial responses and may not hold up.
# Test: Nrf2 qHTS screen for inhibitors: counterscreen for cytotoxicity
# Details: A549 ARE-Fluc cells, CellTiter-Fluor viability, 18-24 h; activity change, negative = cytotoxicity: at 46 µM (top of the series)
# How it was run: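 A549 ARE-Fluc cells in 5% FBS OPTI-MEM, 5000 cells/well, rested 2 h then exposed to compounds in concentration-response for 18-24 h at 37 °C. Viability by CellTiter-Fluor fluorescence (Ex 405/Em 525) after 30 min; luciferase luminescence (BugLite, 15 min, RT) read afterwards.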
# % is scaled to controls: 0 for no effect and ±100 for the full control effect; potency is read from the fitted curve at half-maximal effect.
SMILES,Potency,"activity change, negative = cytotoxicity"
CCOC(=O)c1ccc(N2C(=O)c3[nH]nc(-c4ccccc4)c3C2c2ccc(CC)cc2)cc1 (configuration not stated),"inconclusive: 25.9 µM [falling, partial curve, poor fit]",–
O=C(C[n+]1ccc(-c2cc(C(=O)Nc3cccc(C(F)(F)F)c3)c3ccccc3n2)cc1)c1cccc([N+](=O)[O-])c1,"inconclusive: 29.1 µM [falling, partial curve, poor fit]",–
O=C(c1[nH]ncc1-c1ccccc1)C1CO1 (configuration not stated),–,inactive: -3.36%
Cc1cc(C)n(C(C)CC(=O)Nc2cccc(C(F)(F)F)c2)n1 (configuration not stated),–,inactive: 0.0309%
O=C(NC(NC(=S)Nc1ccccc1)C(Cl)(Cl)Cl)c1cccc(Cl)c1 (configuration not stated),"inconclusive: 32.6 µM [falling, single point]",–
CCCCCOc1ccc(Br)cc1/C(C)=N/NC1=NCCN1,"inconclusive: 8.2 µM [falling, partial curve, poor fit]",–
CS(=O)(=O)Nc1cccc(C2=NN(C(=O)c3ccco3)C(c3cccs3)C2)c1 (configuration not stated),–,inactive: -8.82%
CN(C)S(=O)(=O)c1ccc(NC(=O)c2cc(F)c(F)cc2Cl)cc1,–,inactive: -3.39%
O=C(N/N=C/c1c(O)n(-c2ccccc2Cl)c(=O)c2ccccc12)c1cccnc1,"inconclusive: 23.1 µM [falling, partial curve, poor fit]",–
O=c1cc(-c2ccccc2Cl)oc2c(NS(=O)(=O)c3cccc4nsnc34)ccc(O)c12,"inconclusive: 29.1 µM [falling, single point]",–
COc1ccc(C(C)C)cc1S(=O)(=O)N1CCN(c2ccccc2)CC1,"inconclusive: 23.1 µM [activator, partial curve, poor fit]",–
CC1(C)CC2(CCO1)OC(=O)CC2C(=O)Nc1ccccc1Cl (configuration not stated),"inconclusive: 0.58 µM [activator, full curve, poor fit]",–
CCn1c(=O)cc(SCC(=O)NCc2ccc(F)cc2Cl)c2ccccc21,"inconclusive: 29.1 µM [falling, single point]",–
CC1=CC2=NC(=O)/C(=C\c3cccn3CCOc3ccccc3C)C(=N)N2O1,"inconclusive: 20.6 µM [falling, partial curve]",–
Cc1cc(N/N=C/c2c(O)ccc3ccccc23)nc(-c2ccccc2O)n1,"inconclusive: 29.1 µM [falling, partial curve, poor fit]",–
O=C1OCCN1C(=O)[C@H]1[C@H](c2ccc(Cl)cc2)C(c2cccc(Cl)c2)=NN1c1ccccc1,"inconclusive: 13 µM [activator, partial curve]",–
Cc1ccccc1OCc1nnc(SCc2cc(=O)[nH]c3ccccc23)n1-c1ccccc1,"inconclusive: 16.4 µM [falling, single point]",–
COc1ccc(/C=N\NC(=O)c2ccccc2Br)cc1COc1c(F)c(F)cc(F)c1F,"inconclusive: 18.4 µM [falling, single point]",–
COc1ccc(N2C(=O)/C(=C/c3cccnc3)NC2=S)cc1,"inconclusive: 18.4 µM [falling, partial curve, poor fit]",–
O=C(N/N=C/c1cccc(NC(=O)c2ccc(Cl)cc2)c1)c1ccc(O)cc1,"inconclusive: 20.6 µM [falling, partial curve, poor fit]",–
COc1ccc(-c2nc3cc(C)ccn3c2NCc2ccc3c(c2)OCO3)cc1,"inconclusive: 29.1 µM [activator, single point]",–

# Ordered by molecular weight (falling): some entries from above.
SMILES,Potency,"activity change, negative = cytotoxicity"
O=c1cc(-c2ccccc2Cl)oc2c(NS(=O)(=O)c3cccc4nsnc34)ccc(O)c12,"inconclusive: 29.1 µM [falling, single point]",–
Cc1ccccc1OCc1nnc(SCc2cc(=O)[nH]c3ccccc23)n1-c1ccccc1,"inconclusive: 16.4 µM [falling, single point]",–
O=C(NC(NC(=S)Nc1ccccc1)C(Cl)(Cl)Cl)c1cccc(Cl)c1 (configuration not stated),"inconclusive: 32.6 µM [falling, single point]",–
CS(=O)(=O)Nc1cccc(C2=NN(C(=O)c3ccco3)C(c3cccs3)C2)c1 (configuration not stated),–,inactive: -8.82%
COc1ccc(C(C)C)cc1S(=O)(=O)N1CCN(c2ccccc2)CC1,"inconclusive: 23.1 µM [activator, partial curve, poor fit]",–

# (further entries)

SMILES,Potency,"activity change, negative = cytotoxicity"
CCN(c1ccccc1)S(=O)(=O)c1cc(C(=O)Nc2ccc(F)c(F)c2)ccc1F,"inconclusive: 23.1 µM [falling, partial curve, poor fit]",–
O=C(Nc1ccc(Br)cc1)c1ccc(F)c(S(=O)(=O)NCc2cccs2)c1,–,inactive: -3.17%
O=C(c1cc2ccccc2oc1=O)N1CCN(c2ccc(Cl)cc2)CC1,–,inactive: 2.59%
COc1ccccc1N1CCN(c2ncnc3c2cnn3-c2cc(Cl)ccc2C)CC1,"inconclusive: 23.1 µM [falling, single point]",–
COc1ccc(-c2[nH]c(-c3cccc(OC)c3)nc2SCC(=O)Nc2ccc3c(c2)OCO3)cc1,"inconclusive: 32.6 µM [falling, partial curve, poor fit]",–
COc1cc(C2C(C#N)=C(N)N(Nc3ccccc3)C3=C2C(=O)CC(C)(C)C3)ccc1OCc1ccccc1 (configuration not stated),"inconclusive: 14.6 µM [falling, partial curve]",–
CCc1nnc(NC(=O)c2nc(S(=O)(=O)Cc3ccc(C)cc3)ncc2Cl)s1,"inconclusive: 29.1 µM [falling, single point]",–
Cc1cccc(-n2ncc(C(=O)N3CCN(C4CCCCC4)CC3)c2C2CCN(C(=O)OC(C)(C)C)CC2)c1,"inconclusive: 18.4 µM [falling, partial curve, poor fit]",–
Cc1cccc(C)c1Nc1c(-c2ccccc2F)nc2cccc(C)n12,"inconclusive: 32.6 µM [falling, partial curve, poor fit]",–
Cc1cc(C)c(S(=O)(=O)Nc2ccc(-c3ccc(N4CCC(C)CC4)nn3)cc2)cc1C,"inconclusive: 16.4 µM [falling, partial curve, poor fit]",–
CCCCCCC(C)n1[nH]c(=O)cc1N (configuration not stated),–,inactive: 5.27%
CN1CCN(CC#CCn2c3ccccc3c3ccccc32)CC1,"inconclusive: 29.1 µM [falling, single point]",–
COCC(=O)n1nc(-c2ccccc2)nc1NCc1cccs1,–,inactive: -1.42%
Clc1c(-c2ccccc2)nc2ccccn12,–,inactive: -0.771%
CCOc1ccc(C(=O)/C=C/c2cn(CC(O)CN3CCCCCC3)c3ccccc23)cc1 (configuration not stated),"inconclusive: 20.6 µM [falling, partial curve, poor fit]",–
Cc1cc(C)c[n+](-c2[nH]c(=O)sc2/C=N/NC([S-])=Nc2ccccc2)c1,"inconclusive: 14.6 µM [falling, partial curve, poor fit]",–
Cc1ccc(-c2c(C#N)c(N)n3c(nc4ccccc43)c2C#N)cc1,"inconclusive: 20.6 µM [falling, single point]",–
Cc1ccc(-c2nnn(CC(=O)N(c3cccc(F)c3)C(C(=O)NC3CCCC3)c3ccco3)n2)o1 (configuration not stated),"inconclusive: 11.6 µM [falling, partial curve, poor fit]",–
Clc1ccc(-c2nc3cnccn3c2Nc2ccc3c(c2)OCO3)cc1,"inconclusive: 23.1 µM [falling, single point]",–
Nc1ccc(C(=O)N/N=C/c2cn(Cc3ccccc3)c3ccccc23)cc1,–,inactive: -8.64%
Cc1nn(C)cc1/C=C1\SC(=S)NC1=O,"inconclusive: 16.4 µM [falling, partial curve]",–

SMILES,Potency,"activity change, negative = cytotoxicity"
FC(F)(F)c1ccc(NC(=S)NC2CCCCC2)cc1,"inconclusive: 32.6 µM [falling, single point]",–
C=CCn1c(SCC(=O)NC(=O)NCc2ccco2)nc2sc(C)c(C)c2c1=O,"inconclusive: 18.4 µM [falling, single point]",–
CCOc1ccc(S(=O)(=O)Nc2cccc(C(=O)NCC3(N4CCCCC4)CCCCC3)c2)cc1,"inconclusive: 29.1 µM [falling, single point]",–
Cc1cc(NCc2ccccc2)c2ccccc2n1,"inconclusive: 20.6 µM [falling, partial curve, poor fit]",–
O=C(c1ccccc1)N1CCN(C2C3CC4CC(C3)CC2C4)CC1 (configuration not stated),"inconclusive: 29.1 µM [activator, single point]",–
CS(=O)(=O)c1ccc(Cl)c(NC(=O)COc2ccc3c(c2)CCC3)c1,"inconclusive: 16.4 µM [falling, partial curve, poor fit]",–
CCC(C)NS(=O)(=O)c1ccc(OCC(=O)NCc2cccnc2)cc1 (configuration not stated),"inconclusive: 1.64 µM [falling, partial curve, poor fit]",–
COCCn1c(=S)[nH]c2cc(C(=O)N3CCN(c4cccc(Cl)c4)CC3)ccc2c1=O,"inconclusive: 32.6 µM [falling, partial curve, poor fit]",–
COc1cc(Cl)c(C)cc1NC(=O)CN1CCN(C(=O)C2CC2)CC1,"inconclusive: 18.4 µM [falling, partial curve, poor fit]",–
O=C(Nc1ccc2oc(=O)ccc2c1)c1ccc(-c2cccc([N+](=O)[O-])c2)o1,"inconclusive: 29.1 µM [falling, single point]",–
O=C(c1cc([N+](=O)[O-])ccc1N1CCCCC1)N1CCc2ccccc21,"inconclusive: 23.1 µM [falling, partial curve]",–
CC(C)(C)N=C1C([N+](=O)[O-])=CC=C2C1=NC1(CCCCC1)N2O,"inconclusive: 18.4 µM [falling, single point]",–
O=S(=O)(NC1CC2CCC1C2)c1ccc(Cl)cc1 (configuration not stated),"inconclusive: 23.1 µM [activator, single point]",–
Cn1c(SCC(=O)N2c3ccccc3Sc3ccc(Cl)cc32)nnc1-c1ccco1,"inconclusive: 20.6 µM [falling, single point]",–
CSc1nnc(NC(=O)c2ccc(S(=O)(=O)N(C)C)cc2)s1,–,inactive: -6.94%
O=C1NC(=S)SC1=Cc1cccs1,"inconclusive: 29.1 µM [falling, single point]",–
Oc1ccc(CNc2ccc(F)cc2)c2cccnc12,"inconclusive: 6.51 µM [falling, partial curve]",–
CCOC(=O)c1c(NC(=O)/C=C/c2ccc(C(C)C)cc2)sc2c1CCC2,–,inactive: 0.309%
CN(C)CCOc1ccccc1-c1ccccc1,"inconclusive: 8.2 µM [activator, partial curve, poor fit]",–
CCCCc1c(C)c(C#N)c2[nH]c3ccccc3n2c1=O,"inconclusive: 25.9 µM [falling, partial curve, poor fit]",–
